Experimental data from PubChem BioAssay AID2685 (National Center for Advancing Translational Sciences (NCATS), 2010).
This is one part of the list. These are further read-outs of the screen, such as a control signal, another cell line or another target. No call is given for them. Compounds called inactive in the main read-out are mostly missing here. Potencies come from curve fits of mixed quality, noted in brackets.

Assay: qHTS Assay for Lipid Storage Modulators in Drosophila S3 Cells;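 for cell number change: cells counted by Cell Tracker Red CMTPX staining in the red channel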
Details: BODIPY lipid droplet fluorescence, 18-24 h; for cell number change: measured here: cell count max response, cells fed with added oleic acid
Outline: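 Drosophila S3 cells loaded with oleic acid (400 uM, as added) and compounds at several concentrations; lipid droplets imaged by 488-nm laser-scanning cytometry, 500–530 nm intensity and object ratio to cell channel. Percent activity normalized to 20 uM Triacsin C.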

[1] = measured here: lipid fluorescence (Fed channel) AC50, cells fed with added oleic acid
[2] = measured here: cell number channel AC50, cells fed with added oleic acid

SMILES | cell number change [%] | AC50 [1] | AC50 [2]
CCOc1ccc(CCNC(=O)COC(=O)C2CCN(S(=O)(=O)c3ccc(C)c(C)c3)CC2)cc1OCC | -33 |  | 
CC(C)(Oc1ccc(Cl)cc1)C(=O)NNC(=O)c1ccc(Br)o1 | 1.13 | 6.51 µM [rising, single point] | 
COc1ccc(-c2c3c(=O)n(C)c(=O)n(C)c3cn2-c2cc(OC)ccc2OC)cc1 | -1.14 | 6.51 µM [rising, single point] | 
S=C1N(c2ccccc2)C(c2ccc(Br)cc2)N2CCCN12 (stereo not drawn) | -40.3 | 29.1 µM [falling, single point] | 29.1 µM [falling, single point]
Cc1ccnc(Nc2nc(-c3ccc(O)cc3)cs2)c1 | -37.8 |  | 29.1 µM [falling, single point]
Cc1nn(-c2ccc(F)cc2)c2nc(N)c(C#N)c(-c3ccc(O)c(O)c3)c12 | 21.8 | 29.1 µM [falling, single point] | 
O=S(=O)(c1ccc(C(F)(F)F)cc1)N1CCN(CCc2ccccc2)CC1 | -6.58 | 5.62 µM [rising, single point] | 
O=C(O)CC/C(=C\c1cc([N+](=O)[O-])ccc1Cl)c1nc2ccccc2s1 |  | 7.31 µM [rising, partial curve] | 
O=C(CN1C(=O)c2ccccc2C1=O)N1CCCCC1 | 4.26 | 29.1 µM [falling, partial curve, poor fit] | 
CCCn1c(NC(=O)c2cccc(C)c2C)nc2ccccc21 | 22.4 | 23.1 µM [falling, partial curve, poor fit] | 6.51 µM [rising, single point]
CC(c1nnc(SCC(=O)Nc2sccc2C#N)n1-c1ccc(Cl)cc1)N(C)C (stereo not drawn) | 52.2 |  | 29.1 µM [rising, single point]
CCC(C)[C@H](NC(=O)NC1CCN(Cc2ccccc2)CC1)C(=O)OC (stereo partly drawn) | -3.37 | 23.1 µM [rising, single point] | 
CCC(C(=O)OCC(=O)NC(=O)NC(C)(C)C)c1ccccc1 (stereo not drawn) | 94.9 |  | 
N#Cc1ccc(CN2CCN(C(=O)CCNS(=O)(=O)c3ccc(F)c(Cl)c3)CC2)cc1 |  | 18.4 µM [falling, single point] | 
N#CC1=C(SCC(=O)NC2CC2)NC(=O)C(C#N)C12CCCCC2 (stereo not drawn) | 5.64 |  | 
CC1(C)Cc2c(sc3c2c(=N)n(Cc2ccco2)c(=O)n3Cc2ccc(F)cc2)CO1 | -33.8 | 0.0058 µM [rising, full curve, poor fit] | 32.6 µM [falling, single point]
CN(C(=O)CN(c1ccccc1)S(=O)(=O)c1ccc(F)cc1)C1CCS(=O)(=O)C1 (stereo not drawn) | -18.8 | 0.0146 µM [falling, full curve, poor fit] | 0.00326 µM [falling, full curve, poor fit]
CCN1CCN(CCC(=O)Nc2ccc(F)c(F)c2)CC1 | 17.5 |  | 
FC(F)Oc1ccc(/C=N/c2c(-c3ccc(OC(F)F)cc3)nc3n2CCS3)cc1 | -39.3 |  | 14.6 µM [falling, single point]
COCCNC(=O)Cn1cc(C(=S)N2CCCCC2)c2ccccc21 | 2.55 | 0.731 µM [falling, full curve] | 

SMILES | cell number change [%] | AC50 [1] | AC50 [2]
COc1ccc([C@H]2[C@H](C(=O)C(C)(C)C)N3N=Cc4ccccc4C3[C@]23N=C(c2ccccc2)OC3=O)cc1OC (stereo partly drawn) | 2.68 | 16.4 µM [rising, single point] | 
O=C(COc1ccc2ccccc2c1Br)Nc1ccncc1 | -33 |  | 32.6 µM [falling, single point]
NS(=O)(=O)c1ccc(NC(=S)NC(=O)c2ccc(-c3ccccc3)cc2)cc1 | -17 | 32.6 µM [falling, single point] | 
COc1ccccc1CCNS(=O)(=O)c1cc2c3c(c1)C(C)C(=O)N3CCC2 (stereo not drawn) | -111 | 29.1 µM [falling, single point] | 18.4 µM [falling, single point]
COc1cccc(NC(=O)CN(C)C(=O)c2sc3cc(Cl)ccc3c2Cl)c1 | -2.15 |  | 
COc1cc(/C=C2\SC(=S)N(NC(=O)c3ccccc3O)C2=O)ccc1O | -98.5 |  | 
Cc1ccc(C(=O)Cc2nc3ccccc3[nH]2)cc1 | -22.4 | 0.1 µM [rising, full curve, poor fit] | 
CCOC(=O)c1cc2sccc2n1Cc1ccc(C#N)cc1 | 56 | 6.51 µM [rising, single point] | 8.2 µM [rising, partial curve]
Cc1ccn2c(=O)nc(SCC(=O)NC3CCCC3)nc2c1 | 26.9 |  | 
Cc1cc(N=Nc2ccc(Cl)cc2)cc(CN2CCOCC2)c1O | -61.3 |  | 10.3 µM [falling, partial curve]
COc1ccccc1N(C(=O)c1snc(C(N)=O)c1N)C(C(=O)NC1CCCC1)c1ccc(N(C)C)cc1 (stereo not drawn) | 17.5 | 2.91 µM [rising, single point] | 
CCOC(=O)N/C(N)=N/c1nc2ccccc2s1 | 11.8 |  | 
N#CC1(C#N)C(C(=O)C23CC4CC(CC(C4)C2)C3)C12CCOCC2 (stereo not drawn) | -27.7 |  | 
Oc1oc(-c2ccccc2)nc1/C=N/c1nccs1 | 40.2 | 2.91 µM [rising, single point] | 29.1 µM [rising, single point]
O=C(c1ccco1)N1CCN(C(=O)N2c3ccccc3Sc3ccccc32)CC1 | -44.7 |  | 23.1 µM [falling, partial curve, poor fit]
Nc1ccc(-c2ccc(N)cc2C(F)(F)F)c(C(F)(F)F)c1 | -6.64 |  | 5.17 µM [rising, single point]
COC(=O)c1ccc(N2CCOCC2)c(NC(=O)c2ccc3c(c2)OCO3)c1 | 12.8 | 29.1 µM [falling, single point] | 
Cc1ccc(CN(C(=O)c2csnn2)C(C(=O)NC2CCCC2)c2cccnc2)cc1 (stereo not drawn) | 20.9 |  | 
O=C(NNS(=O)(=O)c1ccc([N+](=O)[O-])cc1)C(=O)Nc1cccc(C(=O)O)c1 | 22.9 | 29.1 µM [falling, single point] | 

Arranged by SMILES length (descending): some entries from above
SMILES | cell number change [%] | AC50 [1] | AC50 [2]
N#CC1(C#N)C(C(=O)C23CC4CC(CC(C4)C2)C3)C12CCOCC2 (stereo not drawn) | -27.7 |  | 
Cc1ccn2c(=O)nc(SCC(=O)NC3CCCC3)nc2c1 | 26.9 |  | 
CCOC(=O)c1cc2sccc2n1Cc1ccc(C#N)cc1 | 56 | 6.51 µM [rising, single point] | 8.2 µM [rising, partial curve]
